# Results from the supplement of paper PMC4604168 (melanoma cell lines).
# This is one part of the list. Many values rest on one well or one pass, so single values are uncertain.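 The apoptosis fraction was the count of cleaved-PARP antibody-stained nuclei relative to all DNA-stained nuclei, imaged in 1,536-well plates. Screening doses were set so most cells survived, and baseline and induced cleaved-PARP levels vary greatly across cell lines.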
# Columns and labels:
# Experiment in all cases: cleaved PARP positive nuclei fraction relative to DMSO control; melanoma cells; higher = more apoptosis
# Conditions in all cases: library dose: low library concentration; 72 h
# MZ2-MEL = test system: MZ2-MEL
# MeWo = test system: MeWo
# RPMI7951 = test system: RPMI7951
# RVH-421 = test system: RVH-421
# SkMel28 = test system: SkMel28
# SkMel2 = test system: SkMel2
# SkMel30 = test system: SkMel30
# SkMel5 = test system: SkMel5
# UACC257 = test system: UACC257
# UACC62 = test system: UACC62
Compound,cleaved PARP positive nuclei fraction (MZ2-MEL) [%],cleaved PARP positive nuclei fraction (MeWo) [%],cleaved PARP positive nuclei fraction (RPMI7951) [%],cleaved PARP positive nuclei fraction (RVH-421) [%],cleaved PARP positive nuclei fraction (SkMel28) [%],cleaved PARP positive nuclei fraction (SkMel2) [%],cleaved PARP positive nuclei fraction (SkMel30) [%],cleaved PARP positive nuclei fraction (SkMel5) [%],cleaved PARP positive nuclei fraction (UACC257) [%],cleaved PARP positive nuclei fraction (UACC62) [%]
"N.N.[Cl][Pt][Cl] [cisplatin] + Oc1nc(-c2ccc(C(F)(F)F)cc2)nc2c1CSCC2 [XAV939] (first compound 1.6 µM, partner dose 2 µM)",87.2,117,107,77.6,241,74.4,136,82.9,70.8,142
"Cn1cc(C2=C(c3cn(C4CCN(Cc5ccccn5)CC4)c4ccccc34)C(=O)NC2=O)c2ccccc21 [Enzastaurin] + c1cc(-c2cnn3cc(-c4ccc(OCCN5CCCCC5)cc4)cnc23)ccn1 [Dorsomorphin] (first compound 0.8 µM, partner dose 0.4 µM)",30.1,33.7,62.5,56.5,172,40,22.7,71.8,168,121
"Cn1cc(C2=C(c3cn(C4CCN(Cc5ccccn5)CC4)c4ccccc34)C(=O)NC2=O)c2ccccc21 [Enzastaurin] + CCc1ccc(CCOc2ccc(CC3SC(=O)NC3=O)cc2)nc1 [pioglitazone] (first compound 0.8 µM, partner dose 2 µM)",141,38.7,68.9,88.6,87.8,135,63.6,70.5,46.1,50.6
"C[C@@H](N)c1ccc(C(=O)Nc2ccnc3[nH]ccc23)cc1 + O=C(Oc1ccc([N+](=O)[O-])cc1)N1CCC(C(O)(c2ccc3c(c2)OCO3)c2ccc3c(c2)OCO3)CC1 [JZL184] (first compound 0.4 µM, partner dose 1 µM)",209,107,231,91.1,212,24.3,78.9,496,195,151
"Cn1c(=O)n(-c2ccc(C(C)(C)C#N)cc2)c2c3cc(-c4cnc5ccccc5c4)ccc3ncc21 + O=C(Oc1ccc([N+](=O)[O-])cc1)N1CCC(C(O)(c2ccc3c(c2)OCO3)c2ccc3c(c2)OCO3)CC1 [JZL184] (first compound 0.004 µM, partner dose 1 µM)",50.3,81.7,24.4,54.6,215,94.8,511,74.1,77.1,218
"N.N.[Cl][Pt][Cl] [cisplatin] + Cc1cc(N2CCOCC2)cc2[nH]c(-c3c(NC[C@@H](O)c4cccc(Cl)c4)cc[nH]c3=O)nc12 [BMS536924] (first compound 1.6 µM, partner dose 0.2 µM)",284,108,47.1,46.5,108,100,73.9,94.3,116,164
"CCN(CC)CCNC(=O)c1c(C)[nH]c(/C=C2\C(=O)Nc3ccc(F)cc32)c1C [sunitinib] + Cc1cc(SCc2sc(-c3ccc(C(F)(F)F)c(F)c3)nc2C)ccc1OCC(=O)O [GW0742] (first compound 0.4 µM, partner dose 2 µM)",187,106,59.1,100,110,25.6,67.4,63.4,44.9,64.2
"CC(=O)O[C@@]12CO[C@@H]1C[C@H](O)[C@@]1(C)C(=O)[C@H](O)C3=C(C)[C@@H](OC(=O)[C@H](O)[C@@H](NC(=O)OC(C)(C)C)c4ccccc4)C[C@@](O)([C@@H](OC(=O)c4ccccc4)[C@H]21)C3(C)C [Docetaxel] + O=C(Oc1ccc([N+](=O)[O-])cc1)N1CCC(C(O)(c2ccc3c(c2)OCO3)c2ccc3c(c2)OCO3)CC1 [JZL184] (first compound 0.0001 µM, partner dose 1 µM)",522,1430,210,51.1,1020,1050,93,89,1310,609
"CNC(=O)c1cc(Oc2ccc(NC(=O)Nc3ccc(Cl)c(C(F)(F)F)c3)cc2)ccn1 [sorafenib] + Cc1cc(SCc2sc(-c3ccc(C(F)(F)F)c(F)c3)nc2C)ccc1OCC(=O)O [GW0742] (first compound 0.4 µM, partner dose 2 µM)",103,43.2,70.7,65.6,164,83.8,86.8,67.7,128,85.5
"Cn1c(=O)n(-c2ccc(C(C)(C)C#N)cc2)c2c3cc(-c4cnc5ccccc5c4)ccc3ncc21 + C/C(O)=C(\C#N)C(=O)Nc1cc(Br)ccc1Br [LFM-A13] (first compound 0.004 µM, partner dose 2 µM)",146,49.9,477,60.9,363,117,41.2,189,67.5,327
"Cn1cc(C2=C(c3cn(C4CCN(Cc5ccccn5)CC4)c4ccccc34)C(=O)NC2=O)c2ccccc21 [Enzastaurin] + C=CCn1c(=O)c2cnc(Nc3ccc(N4CCN(C)CC4)cc3)nc2n1-c1cccc(C(C)(C)O)n1 [MK1775] (first compound 0.8 µM, partner dose 0.02 µM)",152,94.9,99.8,130,39.6,170,69.4,477,61.9,34
"C[As](C)SC[C@H](NC(=O)CC[C@H](N)C(=O)O)C(=O)NCC(=O)O [Darinaparsin] + CC1(C)NC(=O)N(c2ccc([N+](=O)[O-])c(C(F)(F)F)c2)C1=O [nilutamide] (first compound 0.4 µM, partner dose 1 µM)",112,210,52.2,44.8,179,95.3,72,33,100,85.4
"Cn1sc(=O)n(Cc2ccccc2)c1=O + Cc1cc(SCc2sc(-c3ccc(C(F)(F)F)c(F)c3)nc2C)ccc1OCC(=O)O [GW0742] (first compound 0.4 µM, partner dose 2 µM)",102,94.2,55.2,135,147,149,41.6,69.2,70.8,92.8
"O=C(O)[C@@H]1[O][Sb](=[O])([O][Sb]2(=[O])[O][C@H]([C@H](O)CO)[C@H](O)[C@H](C(=O)O)[O]2)[O][C@H]([C@H](O)CO)[C@@H]1O (stereo not given in full) [stibogluconate] + Cc1cc(SCc2sc(-c3ccc(C(F)(F)F)c(F)c3)nc2C)ccc1OCC(=O)O [GW0742] (first compound 2 µM, partner dose 2 µM)",60.9,122,145,84.6,55.3,106,185,262,63.9,66.7
"NC(=O)c1ccc(N(C(N)=O)c2c(F)cccc2F)nc1-c1ccc(F)cc1F + O=C(Oc1ccc([N+](=O)[O-])cc1)N1CCC(C(O)(c2ccc3c(c2)OCO3)c2ccc3c(c2)OCO3)CC1 [JZL184] (first compound 0.4 µM, partner dose 1 µM)",172,53,92.6,220,127,120,38.6,129,42,152
"O=C(O)[C@@H]1[O][Sb](=[O])([O][Sb]2(=[O])[O][C@H]([C@H](O)CO)[C@H](O)[C@H](C(=O)O)[O]2)[O][C@H]([C@H](O)CO)[C@@H]1O (stereo not given in full) [stibogluconate] + C/C(O)=C(\C#N)C(=O)Nc1cc(Br)ccc1Br [LFM-A13] (first compound 2 µM, partner dose 2 µM)",73.8,25.8,47,84.5,96.1,71.6,77.9,68.5,204,90.6
"COc1cc([C@@H]2c3cc4c(cc3[C@@H](O[C@@H]3O[C@@H]5CO[C@@H](C)O[C@H]5[C@H](O)[C@H]3O)[C@H]3COC(=O)[C@H]23)OCO4)cc(OC)c1O [etoposide] + O=C(Oc1ccc([N+](=O)[O-])cc1)N1CCC(C(O)(c2ccc3c(c2)OCO3)c2ccc3c(c2)OCO3)CC1 [JZL184] (first compound 0.02 µM, partner dose 1 µM)",184,121,36,44.1,174,90.1,34.6,84.2,55,96.8
"N.N.[Cl][Pt][Cl] [cisplatin] + O=S(=O)(c1ccccc1)N(CC(F)(F)F)c1ccc(C(O)(C(F)(F)F)C(F)(F)F)cc1 [T0901317] (first compound 1.6 µM, partner dose 1.4 µM)",82.5,25.1,58.1,143,49.9,60.1,73.6,162,49.2,47.9
"N.N.[Cl][Pt][Cl] [cisplatin] + O=c1cc(-c2cccc3c2Sc2ccccc2S3)oc(N2CCOCC2)c1 [KU55933] (first compound 1.6 µM, partner dose 1 µM)",151,82.6,197,138,135,29.9,24,75.2,70.9,32.3
"CC1(C)CCC(c2ccc(Cl)cc2)=C(CN2CCN(c3ccc(C(=O)NS(=O)(=O)c4ccc(N[C@H](CCN5CCOCC5)CSc5ccccc5)c(S(=O)(=O)C(F)(F)F)c4)cc3)CC2)C1 + O=C(Oc1ccc([N+](=O)[O-])cc1)N1CCC(C(O)(c2ccc3c(c2)OCO3)c2ccc3c(c2)OCO3)CC1 [JZL184] (first compound 0.4 µM, partner dose 1 µM)",244,161,146,90.6,176,99.1,439,113,42.9,122
"OCc1c[nH]c2ccccc12 [Indole-3-carbinol] + O=C(Oc1ccc([N+](=O)[O-])cc1)N1CCC(C(O)(c2ccc3c(c2)OCO3)c2ccc3c(c2)OCO3)CC1 [JZL184] (first compound 0.8 µM, partner dose 1 µM)",46.4,27.7,30.5,223,88.8,93.4,74.2,78.6,117,88.2

# Rewritten as tab-separated lines: part of the list above.
Compound	cleaved PARP positive nuclei fraction (MZ2-MEL) [%]	cleaved PARP positive nuclei fraction (MeWo) [%]	cleaved PARP positive nuclei fraction (RPMI7951) [%]	cleaved PARP positive nuclei fraction (RVH-421) [%]	cleaved PARP positive nuclei fraction (SkMel28) [%]	cleaved PARP positive nuclei fraction (SkMel2) [%]	cleaved PARP positive nuclei fraction (SkMel30) [%]	cleaved PARP positive nuclei fraction (SkMel5) [%]	cleaved PARP positive nuclei fraction (UACC257) [%]	cleaved PARP positive nuclei fraction (UACC62) [%]
CC1(C)CCC(c2ccc(Cl)cc2)=C(CN2CCN(c3ccc(C(=O)NS(=O)(=O)c4ccc(N[C@H](CCN5CCOCC5)CSc5ccccc5)c(S(=O)(=O)C(F)(F)F)c4)cc3)CC2)C1 + O=C(Oc1ccc([N+](=O)[O-])cc1)N1CCC(C(O)(c2ccc3c(c2)OCO3)c2ccc3c(c2)OCO3)CC1 [JZL184] (first compound 0.4 µM, partner dose 1 µM)	244	161	146	90.6	176	99.1	439	113	42.9	122
OCc1c[nH]c2ccccc12 [Indole-3-carbinol] + O=C(Oc1ccc([N+](=O)[O-])cc1)N1CCC(C(O)(c2ccc3c(c2)OCO3)c2ccc3c(c2)OCO3)CC1 [JZL184] (first compound 0.8 µM, partner dose 1 µM)	46.4	27.7	30.5	223	88.8	93.4	74.2	78.6	117	88.2
